Test results taken from the supplement of paper PMC3334620.
Whole data set: some 33,000 sequences, median “E-score (-0.5 to 0.5)” near -0.0034, cut for the highest 2% near 0.25. The list shows a part of the results.

The sequences below were run against T1, Yap3 (UniProt P38749) (assay: PBM E-score (8-mer binding enrichment) (E-score (-0.5 to 0.5)); higher = stronger / more preferred TF binding). Details: protein concentration: 100 nM; construct: GST-full length.
T1 sequence: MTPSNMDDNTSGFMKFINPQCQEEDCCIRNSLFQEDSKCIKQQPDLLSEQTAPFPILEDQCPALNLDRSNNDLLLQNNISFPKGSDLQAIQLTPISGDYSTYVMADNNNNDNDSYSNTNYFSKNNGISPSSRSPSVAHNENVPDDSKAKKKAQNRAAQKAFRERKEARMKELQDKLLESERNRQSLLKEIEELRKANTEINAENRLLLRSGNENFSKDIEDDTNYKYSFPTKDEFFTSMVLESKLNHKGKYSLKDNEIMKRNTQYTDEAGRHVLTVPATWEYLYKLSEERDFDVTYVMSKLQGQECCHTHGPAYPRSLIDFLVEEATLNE
Outline: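 The E-score, a modified Wilcoxon-Mann-Whitney statistic, was computed by the Universal PBM Analysis Suite for every ungapped eight-base word pooled with its reverse complement. Scans behind it were normalised with masliner after bound GST-tagged yeast transcription factors were detected with fluorescent anti-GST. The proteins, at about 100-200 nM, had been applied to universal all-10-mer Agilent arrays made double-stranded by primer extension.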
For ACAGTAGC, the “PBM E-score” value was -0.0761. With AGATGCGC the “PBM E-score” value was 0.0107. For CGATTCGC, the “PBM E-score” value was -0.0311. For GCCGACGA, the “PBM E-score” value was 0.0586. In the case of ACGTAGAC, the “PBM E-score” value is reported as -0.198. With TAATATCA the “PBM E-score” value was 0.275. CGTAAAGC was tested, and the “PBM E-score” value was -0.171. AGAAAAGC was tested, and the “PBM E-score” value was 0.0572. GGCGCACA was tested, and the “PBM E-score” value was 0.0136. In the case of GACGAGAA, the “PBM E-score” value is reported as 0.0689. In the case of CCCGGTAG, the “PBM E-score” value is reported as -0.115. CTCATCCA was tested, and the “PBM E-score” value was -0.0177. For TTGGGAAA, the “PBM E-score” value was 0.223. For ATCTTACA, the “PBM E-score” value was 0.175. With TACTAGGA the “PBM E-score” value was -0.0117. With CCAATCGG the “PBM E-score” value was -0.0517. For ACCGAGCC, the “PBM E-score” value was -0.0471. In the case of AGGACACT, the “PBM E-score” value is reported as -0.208. AGCAATCG was tested, and the “PBM E-score” value was 0.167. With CAATTGGG the “PBM E-score” value was -0.0642. GACTGGCA was tested, and the “PBM E-score” value was -0.298. ACCCAATC was tested, and the “PBM E-score” value was 0.0372. In the case of AGAACCAA, the “PBM E-score” value is reported as 0.0511. With AGGATTGA the “PBM E-score” value was 0.129. For CTGGGCGC, the “PBM E-score” value was -0.229. AGAAGGAG was tested, and the “PBM E-score” value was -0.173. With CCCGCTCA the “PBM E-score” value was -0.117. In the case of ATGGCCGG, the “PBM E-score” value is reported as -0.0591. For GAGTGATA, the “PBM E-score” value was 0.13. In the case of AACGCCAA, the “PBM E-score” value is reported as 0.0473. In the case of GGAACCCA, the “PBM E-score” value is reported as -0.0711. CATTCCAG was tested, and the “PBM E-score” value was -0.117. In the case of ATGTGGCC, the “PBM E-score” value is reported as 0.00028. In the case of AGTGTGGC, the “PBM E-score” value is reported as 0.105. For CATTGTTA, the “PBM E-score” value was 0.146. In the case of CTCTCTGA, the “PBM E-score” value is reported as -0.15. With CTAACCGA the “PBM E-score” value was -0.0167. ATCTTGTC was tested, and the “PBM E-score” value was 0.0814. In the case of CCTTCGCG, the “PBM E-score” value is reported as 0.0288. With CATTATGG the “PBM E-score” value was -0.00868. CGCATGGA was tested, and the “PBM E-score” value was -0.109. In the case of ATACGGTC, the “PBM E-score” value is reported as -0.0146. With ATTGGTTC the “PBM E-score” value was 0.131. ATTGCGCA was tested, and the “PBM E-score” value was 0.0929. With TACCACGA the “PBM E-score” value was -0.0297. For CGAAGCTC, the “PBM E-score” value was -0.299. With GGACTCGA the “PBM E-score” value was -0.128. For GATCGAGA, the “PBM E-score” value was -0.0834. For CAAAACCG, the “PBM E-score” value was 0.00322. With CGACACAC the “PBM E-score” value was 0.0631. CGGAATGA was tested, and the “PBM E-score” value was 0.127. With AGACAGAG the “PBM E-score” value was -0.101. For ATGCAGCC, the “PBM E-score” value was -0.0399. With AAGCGAGG the “PBM E-score” value was 0.0466. In the case of ACTACTTC, the “PBM E-score” value is reported as -0.0154. CAGTCTAC was tested, and the “PBM E-score” value was -0.192. For CGGCAACC, the “PBM E-score” value was -0.213. In the case of AGGGAAAT, the “PBM E-score” value is reported as 0.124. For AGGCGCAG, the “PBM E-score” value was -0.278. In the case of GATATATA, the “PBM E-score” value is reported as 0.271. For CGCTATGC, the “PBM E-score” value was -0.127. For TGCTCTAA, the “PBM E-score” value was -0.0432. For GCCATTCC, the “PBM E-score” value was -0.183. ATTCTGTG was tested, and the “PBM E-score” value was 0.0716. For GGCTTCTA, the “PBM E-score” value was -0.0586. For ACACCACC, the “PBM E-score” value was -0.209. With GGTATAAA the “PBM E-score” value was 0.239. In the case of CCTTCATC, the “PBM E-score” value is reported as -0.195. GAATGCTA was tested, and the “PBM E-score” value was -0.0399. In the case of GACCGCTA, the “PBM E-score” value is reported as -0.212. With TAACATAA the “PBM E-score” value was 0.337. GGTACCTA was tested, and the “PBM E-score” value was -0.123. In the case of CGATTAGA, the “PBM E-score” value is reported as 0.111. ATCAGATA was tested, and the “PBM E-score” value was 0.093. For CGGATAGA, the “PBM E-score” value was 0.0808. For CCCACAGA, the “PBM E-score” value was -0.107. For GTGGTGGA, the “PBM E-score” value was -0.143. For AGACTAGG, the “PBM E-score” value was -0.108. With AACCTCGT the “PBM E-score” value was -0.0264. ATCTTAGG was tested, and the “PBM E-score” value was -0.0438. TCTATACA was tested, and the “PBM E-score” value was -0.0211. With CAAGCGTG the “PBM E-score” value was 0.0177. For GACTAAAC, the “PBM E-score” value was -0.143. CGCTCCGA was tested, and the “PBM E-score” value was -0.0344. ACAATGGA was tested, and the “PBM E-score” value was 0.232. ACGCTTCC was tested, and the “PBM E-score” value was -0.164. For CTGTACTC, the “PBM E-score” value was -0.0104. For CGACTGAA, the “PBM E-score” value was -0.127. With ACCCCCCA the “PBM E-score” value was -0.392. For AATCCGAC, the “PBM E-score” value was 0.083. For AGTGGGCG, the “PBM E-score” value was -0.0685. For CGTACTAA, the “PBM E-score” value was 0.159. GAAAGATA was tested, and the “PBM E-score” value was 0.217. In the case of GGTGGCCA, the “PBM E-score” value is reported as -0.0595. With TCTCTTAA the “PBM E-score” value was 0.0795. For AAACATGA, the “PBM E-score” value was 0.128. With ACCGGTAG the “PBM E-score” value was -0.115. With CTTTGACA the “PBM E-score” value was 0.0503. For CACCAGCC, the “PBM E-score” value was -0.18. ACGGATAC was tested, and the “PBM E-score” value was 0.221. With TATAGCGA the “PBM E-score” value was 0.00354. In the case of CTTCGCAA, the “PBM E-score” value is reported as -0.0143. For GGGCCATA, the “PBM E-score” value was -0.151. In the case of AATAATCG, the “PBM E-score” value is reported as 0.107. GCTCATAA was tested, and the “PBM E-score” value was 0.108. For ATCAGGTC, the “PBM E-score” value was -0.0386. With AGTGTCCC the “PBM E-score” value was -0.0809. GATGGGTA was tested, and the “PBM E-score” value was 0.0638. With AAAGTGGC the “PBM E-score” value was -0.0557. In the case of ATGATAAT, the “PBM E-score” value is reported as 0.201. For ATGCTCGA, the “PBM E-score” value was 0.086. For CCGTCCCA, the “PBM E-score” value was -0.141. With CACAAGTC the “PBM E-score” value was -0.135. In the case of GGCCTGGA, the “PBM E-score” value is reported as -0.275. ACGGGGAC was tested, and the “PBM E-score” value was -0.211. GAAAGAAC was tested, and the “PBM E-score” value was 0.129. CGTTGACA was tested, and the “PBM E-score” value was 0.00207. For AGGAAGAA, the “PBM E-score” value was 0.0113. In the case of AGCTTTAC, the “PBM E-score” value is reported as -0.0481. With AGATAACC the “PBM E-score” value was -0.0141. ACTACCAA was tested, and the “PBM E-score” value was -0.1. ACCGCGGA was tested, and the “PBM E-score” value was 0.0221. In the case of GCCCAGCA, the “PBM E-score” value is reported as -0.301. CAGAGACG was tested, and the “PBM E-score” value was -0.0347. In the case of AGTGAGAG, the “PBM E-score” value is reported as -0.0512. For AGCTCGAC, the “PBM E-score” value was -0.00238. For CCCAGGCC, the “PBM E-score” value was -0.294. In the case of ATTACCTA, the “PBM E-score” value is reported as 0.211. In the case of AGTTATAG, the “PBM E-score” value is reported as 0.148. With ATCTTCCA the “PBM E-score” value was -0.0569. For GCCTGTAA, the “PBM E-score” value was -0.113. For ATATCTAC, the “PBM E-score” value was 0.211. In the case of GCGACTAA, the “PBM E-score” value is reported as 0.0907. With CGGTTGTC the “PBM E-score” value was 0.0466. For CTTGGCCA, the “PBM E-score” value was -0.126. ACGTTTGA was tested, and the “PBM E-score” value was 0.178. For GCCAGAAC, the “PBM E-score” value was -0.0153. For CTTGGCAC, the “PBM E-score” value was -0.101. With ATATAGCC the “PBM E-score” value was 0.181. CGGGTAGC was tested, and the “PBM E-score” value was -0.27. CGGGTGCC was tested, and the “PBM E-score” value was -0.162. For CTTGACCA, the “PBM E-score” value was 0.0113. In the case of CGCGTTGC, the “PBM E-score” value is reported as 0.169. In the case of AGTTTTAC, the “PBM E-score” value is reported as 0.116. For ATGGCACC, the “PBM E-score” value was -0.14. ACGTGGTG was tested, and the “PBM E-score” value was -0.0978. With AGAATTCG the “PBM E-score” value was -0.00938. For TGTTTGAA, the “PBM E-score” value was 0.0701. In the case of GGGGGTCA, the “PBM E-score” value is reported as -0.445. AGATAGAG was tested, and the “PBM E-score” value was 0.104. For CAAGTTCC, the “PBM E-score” value was -0.0855. In the case of GGCCCCGA, the “PBM E-score” value is reported as -0.248. In the case of GAACCAGA, the “PBM E-score” value is reported as -0.13. CGGTCAAG was tested, and the “PBM E-score” value was 0.0378. In the case of AAGTAGCG, the “PBM E-score” value is reported as -0.0947. In the case of ACGCATCA, the “PBM E-score” value is reported as 0.114. CAGTTGAA was tested, and the “PBM E-score” value was -0.0326. In the case of ACTGTAAC, the “PBM E-score” value is reported as 0.0996. AAAAGGGA was tested, and the “PBM E-score” value was 0.0232. For AAACACTA, the “PBM E-score” value was 0.198. In the case of GTATACCA, the “PBM E-score” value is reported as 0.0641. In the case of CGGCTAAA, the “PBM E-score” value is reported as 0.137. With GACGCGTC the “PBM E-score” value was -0.202. In the case of GTTCCGTA, the “PBM E-score” value is reported as 0.122. With ACTAGAAG the “PBM E-score” value was -0.0283. AGGATGCG was tested, and the “PBM E-score” value was -0.0348. With CTCCCCGC the “PBM E-score” value was 0.119. For AGGAAGTA, the “PBM E-score” value was 0.00039. In the case of AAAAAGAT, the “PBM E-score” value is reported as 0.147. For CCTAACGA, the “PBM E-score” value was -0.0689. With AACATGCG the “PBM E-score” value was 0.0668. With AACCCGAG the “PBM E-score” value was -0.0401.
